These are yes or no findings as the source states them, for the method shown. Some binding calls cover weakened binding; strength is not graded here.
Tests used:
C6 no His (human) = C6 no His (human) (UniProt P13671); experiment: ELISA, wells coated with 'C6 no His', 1C9 detected with HRP goat anti-mouse IgG; duplicate wells
[1] = molecular target: purified FIM1-2 domains of C6 (human) (UniProt P13671); experiment: ELISA on truncated C6 proteins and SPR
[2] = molecular target: purified FIM1-2 domains of C6 (human) (UniProt P13671); experiment: SPR (BIAcore T200), 1C9 amine-coupled to CM5, FIM1-2 0.975-500 nM
[3] = molecular target: purified FIM1-2 domains of C6 (human) (UniProt P13671); experiment: SPR (BIAcore T200), 1C9 amine-coupled to a CM5 chip, purified FIM1-2 injected
[4] = molecular target: purified FIM1-2 domains of C6 (human) (UniProt P13671); experiment: ELISA, wells coated with FIM1-2_His, 1C9 detected with HRP goat anti-mouse IgG; duplicate wells

Chains of the proteins cited; added tags and fusions are not shown. Lines headed by an entry give the natural chain unless they say otherwise; changes in a name come on top. Residues count along the entry.
UniProt P13671: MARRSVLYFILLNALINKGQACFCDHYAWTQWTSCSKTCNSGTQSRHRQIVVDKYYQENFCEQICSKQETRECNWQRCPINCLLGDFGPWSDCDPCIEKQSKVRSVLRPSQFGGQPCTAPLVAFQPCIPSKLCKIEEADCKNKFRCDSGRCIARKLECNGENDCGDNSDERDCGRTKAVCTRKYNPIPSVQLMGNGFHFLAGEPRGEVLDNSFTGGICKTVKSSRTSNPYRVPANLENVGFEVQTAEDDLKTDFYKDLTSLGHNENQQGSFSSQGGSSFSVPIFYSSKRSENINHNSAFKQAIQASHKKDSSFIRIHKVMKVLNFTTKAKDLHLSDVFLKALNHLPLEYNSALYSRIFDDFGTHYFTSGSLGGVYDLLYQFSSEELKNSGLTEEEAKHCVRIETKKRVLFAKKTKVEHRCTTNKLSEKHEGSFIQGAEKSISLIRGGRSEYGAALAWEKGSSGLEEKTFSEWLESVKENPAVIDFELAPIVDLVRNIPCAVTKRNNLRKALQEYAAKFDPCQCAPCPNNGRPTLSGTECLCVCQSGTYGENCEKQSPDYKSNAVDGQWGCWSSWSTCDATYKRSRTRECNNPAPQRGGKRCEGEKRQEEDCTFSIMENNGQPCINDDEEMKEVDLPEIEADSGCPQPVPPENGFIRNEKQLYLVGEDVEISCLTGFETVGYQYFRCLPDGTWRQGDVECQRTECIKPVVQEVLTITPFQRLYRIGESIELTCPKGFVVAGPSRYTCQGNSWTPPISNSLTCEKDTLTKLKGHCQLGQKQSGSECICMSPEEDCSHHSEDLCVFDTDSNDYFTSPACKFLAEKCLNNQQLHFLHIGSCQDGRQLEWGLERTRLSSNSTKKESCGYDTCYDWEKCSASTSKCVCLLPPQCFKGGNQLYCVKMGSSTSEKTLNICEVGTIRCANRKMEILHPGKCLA
C6 no His: residues 22-934 of P13671
purified FIM1-2 domains of C6: residues 766-934 of P13671

Measured: binding

B1: MoC601 MoG1K (mouse anti-C6 monoclonal antibody 1C9) (antibody, V domains shown)
VH: QVQLQQSGAELVKPGASVKISCKASGYAFSDYWMNWVKQRPGKGLEWIGQIYPGDDDTNYNGKFKGKATLTADKSSSTAYMQLSSLTSEDSAVYFCAREGYYGYTYVEYFDVWGTGTTVTVSS
VL: QIVLTQSPAIMSVSPGEKVTLTCSASSSVSYMHWYQQKSGTSPKRWIYDTSKLASGVPARFSGSGSGTSYSLTISSMEAEDAATYYCQQWTSNPLTFGAGTKLELR
binds: all assays above

From US20260125455A1
